The list shows only some results of the screen, not a fair sample: it gathers tests that were run many times, whatever their T/C, doses with no T/C, and many T/C values between a quarter and a half above the control. Further doses and runs are listed elsewhere. T/C: endpoint of the treated group in % of that of the vehicle group. Some entries give survivors of the animals treated and no T/C: the source holds a T/C of zero for them, seemingly a mark for toxic or unscored doses. Some survivor counts are full or nearly so, which does not show that the dose was tolerated: the source hardly ever lists a survival T/C far under the control, and the zero likely stands for such cases as well. Survivors were counted at the toxicity check, usually on the fifth day, unless a day is given; later deaths do not show. Schedule codes are those of the source, read here as Q, the interval in days (D) or hours (H), X, the number of doses. Some entries were tested several times; the values are given in rising order. For survival time, this PubChem deposit counts one and a half times the control or more as active, and values a quarter to a half above the control carry no call in these data; other NCI protocols may use other cut-offs. Some T/C values are followed by the survivors on the day toxicity was checked, most often the fifth; where none is given, no animal had died by that day.
Tested on: AKR/Lw mice, AKR lymphoma ip, median survival T/C
Test: NCI In Vivo Anticancer Drug Screen. Data for tumor model Lymphoma AKR (Transplanted) (intraperitoneal) in AKR/Lw mice
Conditions: T/C endpoint: median survival time, higher T/C = longer survival
Description: The antitumor activity of compounds was measured in mice bearing transplantable tumors. Survival or tumor size were measured and the results are expressed as the measurement made in the treated group (T) divided by the measurement made in the vehicle treated control group (C). The tumor model used in this assay is Lymphoma AKR (Transplanted) (intraperitoneal) in AKR/Lw mice

[1] = dose: 400.0 mg/kg/injection, schedule: Q01DX001 (ip), vehicle: Klucel (hydroxypropylcellulose) (HPC)
[2] = dose: 100.0 mg/kg/injection, schedule: Q04DX003 (ip), vehicle: Klucel (hydroxypropylcellulose) (HPC)
[3] = dose: 400.0 mg/kg/injection, schedule: Q01DX001 (ip), vehicle: saline
[4] = dose: 150.0 mg/kg/injection, schedule: Q01DX001 (ip), vehicle: saline with Tween-80

Cc1cnc2c(N)[nH]nc2n1
survivor count (dose: 100.0 mg/kg/injection, schedule: Q01DX001 (ip), vehicle: Klucel (hydroxypropylcellulose) (HPC)): 5 of 10 | survivor count (dose: 200.0 mg/kg/injection, schedule: Q01DX001 (ip), vehicle: Klucel (hydroxypropylcellulose) (HPC)): 0 of 10 | survivor count [1]: 10 of 10

CCCCC(C(=O)OCC)C(CCC1CCCCC1)(C(=O)OCC)C(=O)OCC (stereo unspecified)
survivor count [1]: 10 of 10

CC(=O)NNC(=O)c1ccccn1
T/C (dose: 12.5 mg/kg/injection, schedule: Q04DX003 (ip), vehicle: Klucel (hydroxypropylcellulose) (HPC)): 134 % of control | survivor count (dose: 100.0 mg/kg/injection, schedule: Q01DX009 (ip), vehicle: saline): 10 of 10 | T/C [2]: 96 and 115 % of control [8 of 10 alive] | survivor count [2]: 6 of 10 and 8 of 10 | survivor count (dose: 100.0 mg/kg/injection, schedule: Q04DX003 (ip), vehicle: saline): 10 of 10 | survivor count (dose: 200.0 mg/kg/injection, schedule: Q01DX009 (ip), vehicle: Klucel (hydroxypropylcellulose) (HPC)): 6 of 10 and 8 of 10 | T/C (dose: 200.0 mg/kg/injection, schedule: Q04DX003 (ip), vehicle: other): 136 % of control | survivor count (dose: 200.0 mg/kg/injection, schedule: Q04DX003 (ip), vehicle: saline): 10 of 10 | survivor count (dose: 300.0 mg/kg/injection, schedule: Q01DX001 (ip), vehicle: Klucel (hydroxypropylcellulose) (HPC)): 10 of 10 | survivor count (dose: 300.0 mg/kg/injection, schedule: Q01DX009 (ip), vehicle: Klucel (hydroxypropylcellulose) (HPC)): 1 of 10 | survivor count [1]: 5 of 10 | T/C [3]: 125 % of control [9 of 10 alive] | survivor count [3]: 3 of 10 | survivor count (dose: 400.0 mg/kg/injection, schedule: Q01DX009 (ip), vehicle: Klucel (hydroxypropylcellulose) (HPC)): 1 of 10 | survivor count (dose: 400.0 mg/kg/injection, schedule: Q04DX003 (ip), vehicle: Klucel (hydroxypropylcellulose) (HPC)): 2 of 10 | survivor count (dose: 400.0 mg/kg/injection, schedule: Q04DX003 (ip), vehicle: other): 2 of 10 and 10 of 10 | survivor count (dose: 400.0 mg/kg/injection, schedule: Q04DX003 (ip), vehicle: saline): 3 of 10 and 4 of 6 | survivor count (dose: 500.0 mg/kg/injection, schedule: Q01DX001 (ip), vehicle: Klucel (hydroxypropylcellulose) (HPC)): 0 of 10, 1 of 10, 2 of 10 | survivor count (dose: 600.0 mg/kg/injection, schedule: Q01DX001 (ip), vehicle: Klucel (hydroxypropylcellulose) (HPC)): 0 of 10 and 6 of 10

CCCCCCCCCCCCCCCC(=O)OCC1OC(n2ccc(N)nc2=O)C(O)C1O (stereo unspecified)
T/C (dose: 0.31 mg/kg/injection, schedule: Q01DX015 (ip), vehicle: saline with Tween-80): 131 % of control | T/C (dose: 1.25 mg/kg/injection, schedule: Q01DX010 (ip), vehicle: saline with Tween-80): 130 % of control | T/C (dose: 2.5 mg/kg/injection, schedule: Q01DX010 (ip), vehicle: saline with Tween-80): 136 and 147 % of control | T/C (dose: 7.5 mg/kg/injection, schedule: Q01DX005 (ip), vehicle: saline with Tween-80, evaluated on day 5): 147 and 200 % of control | T/C (dose: 7.5 mg/kg/injection, schedule: Q01DX005 (ip), vehicle: saline with Tween-80, evaluated on day 60): 126 and 165 % of control [9 of 10 alive] | T/C (dose: 15.0 mg/kg/injection, schedule: Q01DX005 (ip), vehicle: saline with Tween-80, evaluated on day 5): 238 and 297 % of control | T/C (dose: 15.0 mg/kg/injection, schedule: Q01DX005 (ip), vehicle: saline with Tween-80, evaluated on day 60): 136 and 148 % of control | T/C (dose: 25.0 mg/kg/injection, schedule: Q01DX001 (ip), vehicle: saline with Tween-80, evaluated on day 5): 128 % of control | T/C (dose: 25.0 mg/kg/injection, schedule: Q01DX001 (ip), vehicle: saline with Tween-80, evaluated on day 60): 128 and 135 % of control | T/C (dose: 25.0 mg/kg/injection, schedule: Q14DX003 (ip), vehicle: saline with Tween-80): 131 % of control | T/C (dose: 25.0 mg/kg/injection, schedule: Q14DX004 (ip), vehicle: saline with Tween-80): 142 % of control | T/C (dose: 30.0 mg/kg/injection, schedule: Q01DX005 (ip), vehicle: saline with Tween-80, evaluated on day 5): 210 and 303 % of control | T/C (dose: 30.0 mg/kg/injection, schedule: Q01DX005 (ip), vehicle: saline with Tween-80, evaluated on day 60): 176 and 210 % of control | survivor count (dose: 30.0 mg/kg/injection, schedule: Q01DX015 (ip), vehicle: saline with Tween-80): 10 of 10 | T/C (dose: 37.5 mg/kg/injection, schedule: Q01DX001 (ip), vehicle: saline with Tween-80): 132 % of control | survivor count (dose: 40.0 mg/kg/injection, schedule: Q01DX010 (ip), vehicle: saline with Tween-80): 10 of 10 | T/C (dose: 50.0 mg/kg/injection, schedule: Q01DX001 (ip), vehicle: saline with Tween-80, evaluated on day 5): 145, 158, 192 % of control | T/C (dose: 50.0 mg/kg/injection, schedule: Q01DX001 (ip), vehicle: saline with Tween-80, evaluated on day 60): 158 and 272 % of control | T/C (dose: 50.0 mg/kg/injection, schedule: Q09DX002 (ip), vehicle: saline with Tween-80): 129 % of control | T/C (dose: 50.0 mg/kg/injection, schedule: Q14DX004 (ip), vehicle: saline with Tween-80): 140 % of control | survivor count (dose: 60.0 mg/kg/injection, schedule: Q01DX005 (ip), vehicle: saline with Tween-80): 9 of 10 | T/C (dose: 75.0 mg/kg/injection, schedule: Q01DX001 (ip), vehicle: saline with Tween-80, evaluated on day 5): 72, 115, 155, 163, 208 % of control | T/C (dose: 75.0 mg/kg/injection, schedule: Q01DX001 (ip), vehicle: saline with Tween-80, evaluated on day 60): 155, 160, 272 % of control | T/C (dose: 75.0 mg/kg/injection, schedule: Q09DX002 (ip), vehicle: saline with Tween-80): 135 % of control | survivor count (dose: 80.0 mg/kg/injection, schedule: Q01DX010 (ip), vehicle: saline with Tween-80): 10 of 10 | T/C (dose: 100.0 mg/kg/injection, schedule: Q01DX001 (ip), vehicle: saline with Tween-80, evaluated on day 5): 105, 177, 201, 246, 247 % of control | T/C (dose: 100.0 mg/kg/injection, schedule: Q01DX001 (ip), vehicle: saline with Tween-80, evaluated on day 60): 246 and 272 % of control | survivor count (dose: 120.0 mg/kg/injection, schedule: Q01DX005 (ip), vehicle: saline with Tween-80): 10 of 10 | T/C [4]: 103, 167, 169, 327 % of control | survivor count [4]: 6 of 10 | survivor count (dose: 240.0 mg/kg/injection, schedule: Q01DX005 (ip), vehicle: saline with Tween-80): 5 of 10 | survivor count (dose: 300.0 mg/kg/injection, schedule: Q01DX001 (ip), vehicle: saline with Tween-80): 5 of 10 | survivor count (dose: 450.0 mg/kg/injection, schedule: Q01DX001 (ip), vehicle: saline with Tween-80): 3 of 10 | survivor count (dose: 600.0 mg/kg/injection, schedule: Q01DX001 (ip), vehicle: saline with Tween-80): 0 of 10

COc1cc([C@@H]2c3cc4c(c(O)c3C[C@H]3COC(=O)[C@@H]32)OCO4)cc(OC)c1OC
T/C (dose: 0.5 mg/kg/injection, schedule: Q01DX009 (ip), vehicle: saline): 139 % of control [9 of 10 alive] | T/C (dose: 1.0 mg/kg/injection, schedule: Q01DX009 (ip), vehicle: saline): 125 % of control | survivor count (dose: 2.0 mg/kg/injection, schedule: Q01DX009 (ip), vehicle: saline): 10 of 10 | survivor count (dose: 4.0 mg/kg/injection, schedule: Q01DX009 (ip), vehicle: saline): 9 of 10
